Library screening results

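Whole-cell assay for inhibitors of Mycobacterium tuberculosis growth, labelled Cornell in the record; the read-out is not stated. The concentration is filed as 10 mM, unlikely as a test dose, so the dose is not known. The record gives no direction; compounds strong in two other growth screens of this library score well above the rest, so higher reads as stronger inhibition. Of about 53,000 compounds tested this way, about 900 (1.7%) reached 50% or more in at least one test.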

The filed quantity is “Percent Effect” (%). How 0% and 100% were set is not recorded. Most values in the screen are low, and negative values occur. The compounds are a random part of those screened.

| # | Compound | percent effect |
|---|---|---|
| 1 | `CCN1Cc2ccccc2CC2(CCN(CC3CCC3)CC2)C1=O` | -27.75 |
| 2 | `COCCC(Cc1cccc(Br)c1)C(=O)NCC(N)=O` (stereo not drawn) | 21.56 |
| 3 | `O=C(NCC1CCOCC1)c1cc(-c2ccc3c(c2)CCO3)n[nH]1` | -26.02 |
| 4 | `CN(CCCc1cc(-c2cccc(F)c2)n[nH]1)C(=O)CCn1cncn1` | -10.28 |
| 5 | `CN(C)C(=O)N1CC[C@@H](c2ccc3ccccc3c2)[C@H](O)C1` | 6.618 |
| 6 | `CS(=O)(=O)N1CCOCC2(CCN(C(=O)c3cccnc3)CC2)C1.O=C(O)C(F)(F)F` | 5.036 |
| 7 | `CC(=O)N1CCC1c1cc(NC2CCOCC2)nc(C)n1` (stereo not drawn) | -5.697 |
| 8 | `Fc1cccc(N2CCCC3(CN(Cc4nccs4)CCO3)C2)c1.O=C(O)C(F)(F)F.O=C(O)C(F)(F)F` (stereo not drawn) | 39.92 |
| 9 | `O=C(NC1CCc2c(ccc(=O)n2CC2CC2)C1)c1cscn1` (stereo not drawn) | -39.76 |
| 10 | `O=C(C1CCS(=O)(=O)C1)N1CCN(c2cnccn2)CC1` (stereo not drawn) | 20.85 |
| 11 | `Cc1c(C)n2c(SCC(=O)N3CCCC3)nnc2[nH]c1=O` | 3.553 |
| 12 | `COc1ccc(C(=O)NC2COc3ccccc3C2)cc1OCC(=O)O` (stereo not drawn) | 43.6 |
| 13 | `COCCNC(=O)Cn1ccc2sc(C)cc2c1=O` | 11.33 |
| 14 | `NC(=O)CC1CCN(S(=O)(=O)N2CCCC2c2ccco2)CC1` (stereo not drawn) | -37.93 |
| 15 | `CCC1CN(C(=O)COc2ccc(C)nc2)CCO1` (stereo not drawn) | 14.84 |
| 16 | `CC(=O)N1CCN(c2cc(-c3ccccc3)nc3c(C)c(C)nn23)CC1` | 31.78 |
| 17 | `COCCc1ncc(CN2C[C@H](C3CC3)[C@@H](N)C2)cn1` | -4.988 |
| 18 | `CN1CCN(CC(NCc2ccc(F)cc2)c2ccccc2)CC1` (stereo not drawn) | 18.3 |
| 19 | `Cc1cnnn1Cc1ncn2c1CN(Cc1cccs1)CCC2.O=C(O)C(F)(F)F` | 8.675 |
| 20 | `Cc1nn(C)c(N(C)C)c1CNCc1cccc(Cn2cncn2)c1` | 17.33 |
| 21 | `CSCc1noc(-c2nc3c([nH]2)CCCNC3=O)n1` | 15.45 |
| 22 | `CNC(=O)CNC(=O)c1ccc(-c2scnc2C)nc1` | 51.37 |
| 23 | `O=C(O)CC[C@@H]1CN(c2ncccc2F)CC[C@@H]1N1CCOCC1` | 2.777 |
| 24 | `O=C(c1cccs1)N1CCC2(CC1)CN(c1ccsc1)C(=O)CO2` | 16.06 |
| 25 | `CC1=Nc2c(c(=O)[nH]n2C(C)C)C(c2ccc3c(c2)n(C)c(=O)n3C)S1` (stereo not drawn) | 18.11 |
| 26 | `CC(=O)NCC(=O)N1Cc2nc(COCc3csc(C)n3)oc2C1` | 13.01 |
| 27 | `O=C(NC1CCCCC1)c1ccc(COCC(F)(F)F)o1` | -6.229 |
| 28 | `Cc1cnc(N2CCc3c(CNc4ccnc(C)n4)cncc3C2)nc1.Cl` | -5.914 |
| 29 | `CCCn1cc(S(=O)(=O)N[C@H]2CN(CC(N)=O)C[C@@H]2C2CC2)cn1` | -6.007 |
| 30 | `CC(=O)N1N=C(c2ccccc2)OC1C(=O)NCC(=O)OC(C)(C)C` (stereo not drawn) | -2.71 |
| 31 | `[H][C@@]12CCCO[C@]1([H])[C@H](NC(=O)C1CC1)CN2Cc1ccc2c(c1)OCO2` | 6.614 |
| 32 | `N#CC(NC(=O)CS(=O)(=O)C1CCCC1)c1ccc(F)cc1F` (stereo not drawn) | -0.3334 |
| 33 | `COc1ccc(CN2C[C@@H](F)[C@@H](OCc3nc4ccccc4[nH]3)C2)cn1` | -3.119 |
| 34 | `CC(C)OCCC(=O)NS(=O)(=O)N1CCOc2ccccc21` | 29.29 |
| 35 | `CCOc1ncccc1CNCc1c(C(C)C)nn(C)c1N(C)C` | -29.31 |
| 36 | `CC1CCCCN1Cc1nc(Cc2ccccc2)no1` (stereo not drawn) | 0.9547 |
| 37 | `O=C(O)C(F)(F)F.O=C(c1ccccn1)N1CCc2ncc(Cn3cccn3)n2CC1` | 12.52 |
| 38 | `CC(C)c1cc(CN(C)C(=O)C(C)N2CCc3ccccc3C2)no1` (stereo not drawn) | -39.01 |
| 39 | `COCCNC(=O)Nc1ccc(-c2nc(C(C)C)no2)cc1` | 11.95 |
| 40 | `Cc1csc(CNC(=O)N(C)Cc2cnn(C)c2)n1` | 11.66 |
| 41 | `O=S(=O)(Cc1ccccc1)c1nnc(N2CCOCC2)s1` | -8.48 |
| 42 | `CCNC(=O)NCC(CC)(OC)c1ccccc1` (stereo not drawn) | 3.579 |
| 43 | `[H][C@@]12COC[C@@H](CC(=O)N3CCCCO3)[C@]1([H])CN(S(C)(=O)=O)C2` | -6.387 |
| 44 | `Cc1cn2c(n1)CCC(NC(=O)CCOc1cccc(F)c1)C2` (stereo not drawn) | 5.433 |
| 45 | `O=C(N1CCOCC1)N1CCc2ncnc(NC3CC3)c2CC1` | 1.646 |
| 46 | `CCCc1nnsc1C(=O)N1CCCC1(C)C(=O)N1CCOCC1` (stereo not drawn) | 15.03 |
| 47 | `Cc1cccnc1NC(=O)NC(C)Cn1cccn1` (stereo not drawn) | -2.471 |
| 48 | `CC(C)n1ccnc1CN1CCCC1c1cccc(-n2ccnc2)n1` (stereo not drawn) | 1.727 |
| 49 | `O=C(NCC1CC1)C1CN(Cc2ccncc2)Cc2ccnn2C1.O=C(O)C(F)(F)F.O=C(O)C(F)(F)F.O=C(O)C(F)(F)F` (stereo not drawn) | -14.92 |
| 50 | `CCOCC1CC2(CCN(C(=O)c3ccccn3)CC2)CO1.O=C(O)C(F)(F)F` (stereo not drawn) | 7.654 |
| 51 | `O=C1NC2(CCN(C(=O)Cc3ccsc3)CC2)CC1c1ccccc1` (stereo not drawn) | 8.034 |
| 52 | `Cc1ncsc1CCN(C)C(=O)CN1CCOc2ccccc2C1` | 16.03 |
| 53 | `COc1ccc(Cl)cc1NCc1nc2[nH]c(C)c(C)c(=O)n2n1` | 23.57 |
| 54 | `CN(C)C(=O)c1cccc(NC(=O)c2cnn(C)c2)c1` | -16.6 |
| 55 | `Cc1nc(C(=O)N2CCCC2c2cnn(C)c2)ccc1C#N` (stereo not drawn) | -20.64 |
| 56 | `CS(=O)(=O)N1CCc2sc(C(=O)NCCc3ccccn3)cc21` | -6.999 |
| 57 | `O=C(O)C(F)(F)F.[H][C@@]12CCCO[C@]1([H])[C@@H](Oc1cccnc1)CN2C(=O)CC1CCCC1` | 10.33 |
| 58 | `COCC(=O)N1CCC2(CC1)CC(c1cnn(C)c1)C(=O)N2` (stereo not drawn) | -22.06 |
| 59 | `COCCn1c2c(ccc1=O)CCN(C(=O)CC1CC1)CC2` | 14.97 |
| 60 | `CC(NC(=O)NCCCn1cncn1)c1ccc2c(c1)OCCO2` (stereo not drawn) | 9.273 |
| 61 | `CC(c1cccc(S(N)(=O)=O)c1)N(C)CCc1ccccc1` (stereo not drawn) | -0.4659 |
| 62 | `O=C(O)C(F)(F)F.[H][C@@]12CCN(c3ncccn3)C[C@]1([H])[C@H](C(=O)N(C)C)CCO2` | 4.343 |
| 63 | `CC(=O)N1CCCC2(CCN(C(=O)c3ccc(Cl)c(C(F)(F)F)c3)C2)C1` (stereo not drawn) | 23.19 |
| 64 | `Cc1nc(CN2CCCC2c2[nH]ncc2C(=O)N(C)C)cs1` (stereo not drawn) | 37.61 |
| 65 | `COc1cccc(-c2cc(CN)ccc2F)c1F` | 9.77 |
| 66 | `CC(=O)N1CCC(c2nc3ccc(C)cn3n2)CC1` | -0.7817 |
| 67 | `CNC(=O)NC(=O)CCSc1ccccc1C` | -7.656 |

Once more, the final 8:

For CC(NC(=O)NCCCn1cncn1)c1ccc2c(c1)OCCO2 (stereo not drawn) the result was 9.273%.
For CC(c1cccc(S(N)(=O)=O)c1)N(C)CCc1ccccc1 (stereo not drawn) the result was -0.4659%.
For O=C(O)C(F)(F)F.[H][C@@]12CCN(c3ncccn3)C[C@]1([H])[C@H](C(=O)N(C)C)CCO2 the result was 4.343%.
For CC(=O)N1CCCC2(CCN(C(=O)c3ccc(Cl)c(C(F)(F)F)c3)C2)C1 (stereo not drawn) the result was 23.19%.
For Cc1nc(CN2CCCC2c2[nH]ncc2C(=O)N(C)C)cs1 (stereo not drawn) the result was 37.61%.
For COc1cccc(-c2cc(CN)ccc2F)c1F the result was 9.77%.
For CC(=O)N1CCC(c2nc3ccc(C)cn3n2)CC1 the result was -0.7817%.
For CNC(=O)NC(=O)CCSc1ccccc1C the result was -7.656%.

The values are deposited in ChEMBL (CHEMBL3988442, “University of Dundee, Small-Polar-MMV Screening Library” (2021)).